Measurements: the supplement of paper PMC3334620
In all, about 33,000 sequences were measured (“E-score (-0.5 to 0.5)”: median about -0.015, highest 2% from about 0.3 on). The list shows a part of the results.

biological target: T1, Abf1 (UniProt P14164); assay: PBM E-score (8-mer binding enrichment) (E-score (-0.5 to 0.5)); higher = stronger / more preferred TF binding; details: protein concentration: 200 nM; construct: GST-full length
T1 sequence: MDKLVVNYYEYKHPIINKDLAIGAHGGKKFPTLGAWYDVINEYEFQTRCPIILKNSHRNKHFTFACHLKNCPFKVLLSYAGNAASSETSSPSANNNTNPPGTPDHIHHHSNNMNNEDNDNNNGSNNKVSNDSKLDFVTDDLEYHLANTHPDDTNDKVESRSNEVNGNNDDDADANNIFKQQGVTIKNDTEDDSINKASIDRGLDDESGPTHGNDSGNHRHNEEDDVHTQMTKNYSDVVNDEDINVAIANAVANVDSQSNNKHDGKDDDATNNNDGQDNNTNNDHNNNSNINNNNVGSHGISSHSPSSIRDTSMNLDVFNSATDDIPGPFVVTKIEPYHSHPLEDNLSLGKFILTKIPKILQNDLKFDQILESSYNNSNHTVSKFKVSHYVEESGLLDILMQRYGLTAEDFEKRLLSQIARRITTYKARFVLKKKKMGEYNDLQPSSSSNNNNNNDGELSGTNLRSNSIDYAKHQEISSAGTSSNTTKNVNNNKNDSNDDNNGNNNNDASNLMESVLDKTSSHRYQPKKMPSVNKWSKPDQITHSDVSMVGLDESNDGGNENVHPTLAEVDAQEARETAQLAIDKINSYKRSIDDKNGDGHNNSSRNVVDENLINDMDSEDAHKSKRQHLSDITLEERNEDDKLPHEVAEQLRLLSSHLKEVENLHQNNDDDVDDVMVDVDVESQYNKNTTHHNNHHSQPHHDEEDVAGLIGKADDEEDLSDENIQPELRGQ
Method in brief: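 GST-tagged yeast TFs (full-length or DNA-binding domain) were made by PURExpress in vitro transcription/translation and applied at about 100-200 nM to universal all-10-mer Agilent arrays. The arrays were made double-stranded by primer extension, on fresh or once-stripped slides. Bound protein was detected with fluorescent anti-GST, and scans were normalised with masliner. Each ungapped eight-base word, pooled with its reverse complement, received an E-score (modified Wilcoxon-Mann-Whitney statistic) from the Universal PBM Analysis Suite.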

Row | Sequence | PBM E-score
1 | AGGGAGAA | 0.041
2 | CCACTACA | -0.0773
3 | CCTCTTAA | -0.0892
4 | CATTGCTA | 0.176
5 | AACCGTTA | -0.0271
6 | GACCCATA | 0.0597
7 | GATAATGA | 0.237
8 | AAATGCGC | -0.0662
9 | GTGCAATA | 0.00211
10 | CATCGTAA | 0.106
11 | ACTCTATA | 0.145
12 | GGTCATCA | 0.196
13 | ACTCACGC | -0.0481
14 | AGGTGTCC | 0.0332
15 | AAGAAAGT | -0.019
16 | AGTAAAGC | -0.0263
17 | TCCTTTCA | -0.0567
18 | CCTGAGAC | -0.128
19 | ACGATCGG | 0.168
20 | CGCCGTTC | 0.331
21 | AGGGACCC | -0.271
22 | GAGCTACA | -0.256
23 | CATATATA | 0.0278
24 | AGACAATG | 0.0762
25 | AACAGGAC | 0.0871

Row | Sequence | PBM E-score
26 | AACCGCCG | -0.089
27 | CGGACGAC | 0.343
28 | ATATGTAA | 0.068
29 | ATAATGGG | 0.115
30 | CAAGATAA | 0.227
31 | AGACCAGC | -0.283
32 | ACTCCGTA | 0.149
33 | CAAGTTCG | -0.311
34 | AGAGATCA | 0.138
35 | CTGTAATC | -0.0577
36 | ATCGAAAT | 0.0958
37 | ACGGAACT | 0.188
38 | CAAGATGA | 0.118
39 | TAACGGGA | 0.00652
40 | ACCCAAGG | 0.0372
41 | TATCAGCA | 0.092
42 | ATCGACTA | 0.029
43 | ATCTGGGC | -0.214
44 | ATTCTGCA | -0.00808
45 | GCTCCGAC | -0.327
46 | ACCTAAAG | -0.0062
47 | GTCAAGAC | -0.0184
48 | CCAAACCG | -0.0285
49 | ATGCGCCA | -0.0239
50 | AGACGTTC | 0.0192

Row | Sequence | PBM E-score
51 | ACGGTTCC | 0.136
52 | GACCGCAC | 0.0148
53 | TGGCACCA | -0.221
54 | CTTATCGC | 0.108
55 | AGCGCGAT | 0.229
56 | ATTGTGGG | -0.127
57 | GCAGTCCA | -0.0162
58 | CATGCTAA | 0.0181
59 | GACGCTCC | -0.234
60 | CACCTGCA | -0.00768
61 | GTAGCCGA | -0.0489
62 | ACCCTTTC | -0.112
63 | ACAGACGC | -0.0922
64 | GCCTCGTA | 0.214
65 | GAACGTGA | 0.105
66 | CTAATGCA | 0.129
67 | CACGTCTC | 0.0146
68 | ATAAACCG | -0.00447
69 | GGGCGCCC | -0.0112
70 | CGTCGGAG | 0.252
71 | ACACACGG | 0.0803
72 | GCCTGAAA | 0.0257
73 | GCGCACCC | -0.0573
74 | GAATAACC | -0.0459
75 | ATGCTGAG | -0.133

4 entries picked at random from those above, as already listed:
Row | Sequence | PBM E-score
55 | AGCGCGAT | 0.229
59 | GACGCTCC | -0.234
73 | GCGCACCC | -0.0573
74 | GAATAACC | -0.0459

(next part)

Row | Sequence | PBM E-score
76 | CAACGCAG | -0.169
77 | AACCGACC | 0.0181
78 | CCGCCTGA | -0.171
79 | ATGAGCAT | 0.0212
80 | ACTGGTCT | -0.176
81 | CGCAGTTA | -0.111
82 | AATAAGCC | -0.0497
83 | AGCGATGA | 0.252
84 | ATGAGAAA | 0.179
85 | TAAGACGA | 0.231
86 | CAGGTTTA | -0.233
87 | ACCTAGGT | -0.126
88 | CCCGCACG | -0.00505
89 | CCGCTGAC | -0.0211
90 | AGTGAAAA | -0.0609
91 | CAGATATC | 0.195
92 | ACAAAGTC | 0.0656
93 | ACGGTGCC | 0.161
94 | ACTAGACT | -0.0609
95 | AGTGTCAA | -0.0321
96 | CGGGACCG | -0.027
97 | GAATCACC | 0.142
98 | GTATCGCA | -0.0276
99 | ATCCCAAA | 0.0264
100 | TCAATCGA | 0.132

Row | Sequence | PBM E-score
101 | AGACGCCT | -0.22
102 | AAAGTAGT | 0.0771
103 | CATTAGGG | -0.219
104 | GATTACCA | -0.00189
105 | ACGTAGTG | -0.118
106 | AGAAACAG | -0.0499
107 | CAGAGTGG | -0.103
108 | AACTACTA | 0.122
109 | GCGTCAGA | 0.0352
110 | GCCGATTA | 0.0337
111 | ACATCACA | 0.183
112 | CCTACTAC | -0.0898
113 | CCAGGCCC | -0.219
114 | ATTGCCCC | -0.0607
115 | ATGAGTAC | 0.18
116 | CCTAGGTC | -0.0415
117 | AACTTTTA | 0.196
118 | CCTCGTAC | 0.273
119 | TAACTGGA | -0.0583
120 | GCCGTGCA | 0.223
121 | GGCCTACC | -0.111
122 | CTGACAAG | 0.0444
123 | GGAACCCC | -0.268
124 | CTGTCAAG | -0.181
125 | GCTTTACC | -0.124

Row | Sequence | PBM E-score
126 | CCTCAAAA | -0.0943
127 | AGGCCAGG | -0.0593
128 | CTAATATA | 0.104
129 | AAGACGCC | 0.0231
130 | ATCAAAAG | 0.0504
131 | CCAGTAAG | -0.103
132 | GCGCAGCA | -0.0858
133 | GCTCCTAC | 0.00267
134 | ATGACTAC | 0.191
135 | CTAAGCGA | -0.0187
136 | GGTACGGA | 0.13
137 | ACTGCGAA | -0.0387
138 | AGGGTAGA | -0.105
139 | AGCTAGGC | -0.186
140 | ACGTCCCA | -0.035
141 | CATGTCGC | 0.0807
142 | GGACGGAA | -0.0669
143 | ACAAGATA | 0.117
144 | CGCCAACG | -0.107
145 | AGCCCCCG | -0.256
146 | GGTTGCCA | -0.195
147 | GCAGCGAC | -0.147
148 | CCCTTCTA | -0.212
149 | ACTGGCGC | -0.0358
150 | ACTCTGAT | 0.043

Row | Sequence | PBM E-score
151 | CGCGGACG | 0.174
152 | GGCACAGA | -0.197
153 | AGCCGCCT | -0.214
154 | AGCGTAAG | -0.145
155 | CAGCCTAG | -0.228
156 | AGGACCAG | -0.0993
157 | ATCACGAG | 0.2
158 | AAGCAAAT | 0.0514
159 | ACGCTTTG | 0.102
160 | GCTATCCC | -0.281
161 | CTGGTAAA | -0.16
162 | ATCGTTGC | 0.116
163 | ATTGAACG | 0.223
164 | AGGTGAAT | 0.0397
165 | ACATCCAG | -0.0483
166 | CACGACGG | 0.356
167 | CCGAAAGG | 0.0609
168 | CGATAGCC | 0.104
169 | CCACCTCG | -0.237
170 | ACTGCCTA | 0.0517
171 | AAAAGTAA | 0.208
172 | CTCGTATA | 0.241

Some of the entries above, reformatted:
Row,Sequence,PBM E-score
136,GGTACGGA,0.13
137,ACTGCGAA,-0.0387
138,AGGGTAGA,-0.105
139,AGCTAGGC,-0.186
140,ACGTCCCA,-0.035
141,CATGTCGC,0.0807
142,GGACGGAA,-0.0669
144,CGCCAACG,-0.107
145,AGCCCCCG,-0.256
146,GGTTGCCA,-0.195
147,GCAGCGAC,-0.147
148,CCCTTCTA,-0.212
149,ACTGGCGC,-0.0358
150,ACTCTGAT,0.043
151,CGCGGACG,0.174
152,GGCACAGA,-0.197
153,AGCCGCCT,-0.214
155,CAGCCTAG,-0.228
156,AGGACCAG,-0.0993
157,ATCACGAG,0.2
158,AAGCAAAT,0.0514
159,ACGCTTTG,0.102
160,GCTATCCC,-0.281
162,ATCGTTGC,0.116
163,ATTGAACG,0.223
164,AGGTGAAT,0.0397
165,ACATCCAG,-0.0483
166,CACGACGG,0.356
167,CCGAAAGG,0.0609
168,CGATAGCC,0.104
169,CCACCTCG,-0.237
170,ACTGCCTA,0.0517
171,AAAAGTAA,0.208
172,CTCGTATA,0.241
